Test results from patent US20200079861A1.
Results are given in words; binding and its absence hold for the method and conditions named. Some entries that bind do so weakly or less than the wild type.

T1: biotinylated GITR (GITR-bio) (UniProt Q9Y5U5)
T1 sequence (biotinylated, site not stated, looked up): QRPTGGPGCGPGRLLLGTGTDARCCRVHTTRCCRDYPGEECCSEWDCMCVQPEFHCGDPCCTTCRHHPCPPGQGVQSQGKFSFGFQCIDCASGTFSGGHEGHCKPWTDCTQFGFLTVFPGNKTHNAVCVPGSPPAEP


Experiments:
[1] = molecular target: T1, biotinylated GITR (GITR-bio); experiment: flow cytometry, antibody expressed on 1624-5 pre-B cells, GITR-bio detected with streptavidin-PE
[2] = molecular target: T1, biotinylated GITR (GITR-bio); experiment: flow cytometry competition, GITR-bio pre-incubated with 2 µg antibody

| binding [1] | binding [2] | Binder |
| --- | --- | --- |
| binds | – | chimeric parental 231-32-15 antibody (antibody, V domains shown) VH: QVQLLQSGTELVRPGVSVKISCKGSGYTFTDYAMYWVKQSHAKSLEWIGVIRTYSGDVTYNQKFKDKATMTVDKSSSIAYMELARLSSEDSAIYYCAKSGTVRGFAYWGQGTLVTVSS VL: DIVMTQSPSSLTVTAGEKVIMSCKSSQSLLNSGNQKNYLTWYQQKPGQPPKLLIYWASTRESGVPDRFTGSGSGTDFTLTISSVQAEDLAVYHCQNDYSYPYTFGGGTKLEIK |
| – | binds | pab1875 (antibody, V domains shown) VH: QVQLVQSGAEVKKPGASVKVSCKGSGYTFTDYAMYWVRQAPGQGLEWIGVIRTYSGDVTYNQKFKDRATMTVDKSISTAYMELSRLRSDDTAVYYCAKSGTVRGFAYWGQGTLVTVSS VL: DIVMTQSPPTLSLSPGERVTLSCKSSQSLLNSGNQKNYLTWYQQKPGQAPRLLIYWASTRESGIPARFSGSGSGTDFTLTISSLQPEDFAVYHCQNDYSYPYTFGQGTKLEIK |
| – | binds | pab1876 (antibody, human IgG1, V domains shown) VH: QVQLVQSGAEVKKPGASVKVSCKGSGYTFTDYAMYWVRQAPGQGLEWIGVIRTYSGDVTYNQKFKDRATMTVDKSISTAYMELSRLRSDDTAVYYCAKSGTVRGFAYWGQGTLVTVSS VL: DIVMTQSPDSLAVSLGERATINCKSSQSLLNSGNQKNYLTWYQQKPGQPPKLLIYWASTRESGVPDRFSGSGSGTDFTLTISSLQAEDVAVYHCQNDYSYPYTFGQGTKLEIKR |
